Laboratory results from paper doi:10.1101/769059.

Amino acid sequences for entries named in this document (tags omitted).
UniProt Q9CQY1: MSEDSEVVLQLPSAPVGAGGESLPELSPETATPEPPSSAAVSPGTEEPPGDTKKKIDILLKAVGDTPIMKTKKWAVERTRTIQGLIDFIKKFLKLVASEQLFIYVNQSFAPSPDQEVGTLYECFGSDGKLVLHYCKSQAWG
UniProt Q61194: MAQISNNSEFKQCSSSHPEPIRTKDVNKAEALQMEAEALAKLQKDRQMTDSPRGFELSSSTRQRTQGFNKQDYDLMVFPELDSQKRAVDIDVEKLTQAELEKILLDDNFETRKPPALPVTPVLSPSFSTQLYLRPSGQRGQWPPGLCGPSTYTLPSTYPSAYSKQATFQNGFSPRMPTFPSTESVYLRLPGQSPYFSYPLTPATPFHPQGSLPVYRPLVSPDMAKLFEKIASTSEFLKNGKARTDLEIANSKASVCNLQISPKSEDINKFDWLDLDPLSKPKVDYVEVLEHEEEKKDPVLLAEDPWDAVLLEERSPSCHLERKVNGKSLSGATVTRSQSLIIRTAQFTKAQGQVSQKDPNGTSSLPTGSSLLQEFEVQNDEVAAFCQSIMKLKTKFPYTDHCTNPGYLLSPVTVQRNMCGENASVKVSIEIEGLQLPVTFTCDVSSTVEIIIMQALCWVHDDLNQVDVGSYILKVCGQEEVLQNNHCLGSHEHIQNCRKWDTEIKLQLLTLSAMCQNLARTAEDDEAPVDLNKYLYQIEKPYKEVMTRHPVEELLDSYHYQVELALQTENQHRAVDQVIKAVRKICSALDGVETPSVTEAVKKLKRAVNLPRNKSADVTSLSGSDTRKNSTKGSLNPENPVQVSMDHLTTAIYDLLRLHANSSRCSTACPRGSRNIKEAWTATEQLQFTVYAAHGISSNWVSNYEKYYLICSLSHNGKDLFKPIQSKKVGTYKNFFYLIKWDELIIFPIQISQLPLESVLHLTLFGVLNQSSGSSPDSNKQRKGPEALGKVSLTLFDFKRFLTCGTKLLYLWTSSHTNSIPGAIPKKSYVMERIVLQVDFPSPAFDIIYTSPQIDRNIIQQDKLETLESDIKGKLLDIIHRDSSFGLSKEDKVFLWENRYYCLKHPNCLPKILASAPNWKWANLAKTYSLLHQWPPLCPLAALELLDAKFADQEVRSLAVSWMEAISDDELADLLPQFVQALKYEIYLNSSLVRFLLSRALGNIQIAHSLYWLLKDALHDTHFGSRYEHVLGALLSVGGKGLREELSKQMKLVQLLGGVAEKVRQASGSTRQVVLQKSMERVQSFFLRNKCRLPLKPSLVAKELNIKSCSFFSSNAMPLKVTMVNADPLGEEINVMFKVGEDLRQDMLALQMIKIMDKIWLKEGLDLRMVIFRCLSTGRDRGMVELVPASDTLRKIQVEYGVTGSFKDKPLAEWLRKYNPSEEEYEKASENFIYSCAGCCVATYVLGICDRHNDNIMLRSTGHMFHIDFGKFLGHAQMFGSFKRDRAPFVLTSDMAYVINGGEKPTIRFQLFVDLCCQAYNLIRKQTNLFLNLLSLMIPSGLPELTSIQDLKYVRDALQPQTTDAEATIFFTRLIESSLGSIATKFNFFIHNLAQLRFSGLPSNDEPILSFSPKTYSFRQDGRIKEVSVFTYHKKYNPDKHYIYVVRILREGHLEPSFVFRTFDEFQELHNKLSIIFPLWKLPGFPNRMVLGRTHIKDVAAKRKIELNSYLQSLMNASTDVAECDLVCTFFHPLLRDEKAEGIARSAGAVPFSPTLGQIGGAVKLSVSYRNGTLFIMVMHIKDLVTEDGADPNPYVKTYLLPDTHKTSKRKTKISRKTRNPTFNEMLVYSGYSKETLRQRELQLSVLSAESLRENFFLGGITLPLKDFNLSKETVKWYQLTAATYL

T1: K130R GFP-ATG5 (mouse) (UniProt Q99J83)
T1 sequence: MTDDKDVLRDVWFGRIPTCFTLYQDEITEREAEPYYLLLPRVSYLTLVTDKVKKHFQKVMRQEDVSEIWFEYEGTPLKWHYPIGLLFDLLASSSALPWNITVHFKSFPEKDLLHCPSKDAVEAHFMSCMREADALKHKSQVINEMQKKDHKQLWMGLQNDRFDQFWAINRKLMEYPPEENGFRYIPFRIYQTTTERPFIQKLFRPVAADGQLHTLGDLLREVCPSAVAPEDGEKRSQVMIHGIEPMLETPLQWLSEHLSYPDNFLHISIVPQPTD


What was measured:
Test in all cases: affinity purification with mass spectrometry
[1] = molecular target: wild-type GFP-ATG5 (mouse) (UniProt Q99J83)
[2] = molecular target: T1, K130R GFP-ATG5 (mouse)
[3] = molecular target: wild-type GFP-ATG5 (mouse) (UniProt Q99J83); remark: listed apart in the source

Molecule | binding [1] | binding [2] | binding [3]
ATG12 (from UniProt Q9CQY1 1-141) | binds | – | –
phosphatidylinositol 4-phosphate 3-kinase C2 domain-containing subunit alpha (from UniProt Q61194 1-1686) (enzyme) | binds | no binding | binds
ATG101 (protein, UniProt Q9D8Z6 1-218) MNCRSEVLEVSVEGRQVEEAMLAVLHTVLLHRSTGKFHYKKEGTYSIGTVGIQDVDCDFIDFTYVRVSSEELDRALRKVVGEFKDALRNSGGDGLGQMSLEFYQKKKSRWPFSDECIPWEVWTVKVHVVALATEQERQICREKVGEKLCEKIINIVEVMSRHEYLPKMPTQSEVDNVFDTGLRDVQPYLYKISFQITEALGTSVTTTMRRLIKDTLAL | – | no binding | no binding
ATG13 (protein, UniProt Q91YI1 1-516) METELSSQDRKDLDKFIKFFALKTVQVIVQARLGEKICTRSSSSPTGSDWFNLAIKDIPEVTHEAKKALSGQLPAVGRSMCVEISLKTSEGDSMELEIWCLEMNEKCDKEIKVSYTVYNRLSLLLKSLLAITRVTPAYRLSRKQGHEYVILYRIYFGEVQLNGLGEGFQTVRVGTVGTPVGTLTLSCAYRINLAFMSTRQFERTPPIMGIIIDHFVDRPYPSSSPMHPCNYRTAEDAGVAYPSVEDSQEVCTTSFSTSPPSQLSSSRLSYQPAVLGLGSADLAYPVVFTAGLNTTHAHQLMVPGKEGGVTLAPSHPTHGAQADPERLVMHMPSDGTHCAATPSSSEDTETVSNSSEGRASPHDILETIFVRKVGAFVNKPINQVTVTSLDIPFAMFAPKNLELEDADPMVNPPESPETTSPLHGSLHSDGSSGGSGGSTHDDFVMIDFKPAFSKDDILPMDLGTFYREFQNPPQLSSLSIDFGAQSMAEDLDSLPEKLAVHEKNVREFDAFVETLQ | – | no binding | no binding
huntingtin interacting protein 1 (protein, UniProt Q8VD75 1-1029) MDRMASSMKQVSNPLPKVLSRRGVGAGMEAAERESFERTQTVSVNKAINTQEVAVKEKHARTCILGTHHEKGAQTFWSVVNRLPLSSNAMLCWKFCHVFHKLLRDGHPNVLKDSLRYKNELSDMSRMWGHLSEGYGQLCSIYLKLLRTRMEYHTKNPRFPGNLQMSDRQLDEAGESDVNNFFQLTVEMFDYLECELNLFQTVFNSLDMSRSVSVTTAGQCRLAPLIQVILDCSHLYDYTVKLLFKLHSCLPADTLQGHRDRFMEQFTKLKDLFQRSSNLQYFKRLIQIPQLPENPPNFLRASALSEHISPVVVIPAEVSSPDSEPVLEKDDLMDMDASQQTLFDNKFDDVFGSSLSSDPFNFNNQNGVNKDEKDHLIERLYREISGLTGQLDNMKIESQRAMLQLKGRVSELEAELAEQQHLGRQAMDDCEFLRTELDELKRQREDTEKAQRSLTEIERKAQANEQRYSKLKEKYSELVQNHADLLRKNAEVTKQVSVARQAQVDLEREKKELADSFARTQEQQDVLENLKHELATSRQELQVLHSNLETSAQSEAKWLTQIAELEKEQGSLATVAAQREEELSALRDQLESTQIKLAGAQESMCQQVKDQRKTLLAGIRKAAEREIQEALSQLEEPTLISCAGSTDHLLSKVSSVSSCLEQLEKNGSQYLACPEDISELLHSITLLAHLTGDTIIQGSATSLRAPPEPADSLTEACRQYGRETLAYLSSLEEEGTMENADVTALRNCLSRVKTLGEELLPRGLDIKQEELGDLVDKEMAATSAAIEAATTRIEEILSKSRAGDTGVKLEVNERILGSCTSLMQAIKVLVVASKDLQKEIVESGRGTASPKEFYAKNSRWTEGLISASKAVGWGATIMVDAADLVVQGKGKFEELMVCSREIAASTAQLVAASKVKANKGSLNLTQLQQASRGVNQATAAVVASTISGKSQIEETDSMDFSSMTLTQIKRQEMDSQVRVLELENDLQKERQKLGELRKKHYELAGVAEGWEEGTEASPSTVQEAIPDKE | – | no binding | binds
ATG7 (protein, UniProt Q9D906 1-698) MGDPGLAKLQFAPFNSALDVGFWHELTQKKLNEYRLDEAPKDIKGYYYNGDSAGLPTRLTLEFSAFDMSASTPAHCCPAMGTLHNTNTLEAFKTADKKLLLEQSANEIWEAIKSGAALENPMLLNKFLLLTFADLKKYHFYYWFCCPALCLPESIPLIRGPVSLDQRLSPKQIQALEHAYDDLCRAEGVTALPYFLFKYDDDTVLVSLLKHYSDFFQGQRTKITVGVYDPCNLAQYPGWPLRNFLVLAAHRWSGSFQSVEVLCFRDRTMQGARDVTHSIIFEVKLPEMAFSPDCPKAVGWEKNQKGGMGPRMVNLSGCMDPKRLAESSVDLNLKLMCWRLVPTLDLDKVVSVKCLLLGAGTLGCNVARTLMGWGVRHVTFVDNAKISYSNPVRQPLYEFEDCLGGGKPKALAAAERLQKIFPGVNARGFNMSIPMPGHPVNFSDVTMEQARRDVEQLEQLIDNHDVIFLLMDTRESRWLPTVIAASKRKLVINAALGFDTFVVMRHGLKKPKQQGAGDLCPSHLVAPADLGSSLFANIPGYKLGCYFCNDVVAPGDSTRDRTLDQQCTVSRPGLAVIAGALAVELMVSVLQHPEGGYAIASSSDDRMNEPPTSLGLVPHQIRGFLSRFDNVLPVSLAFDKCTACSPKVLDQYEREGFTFLAKVFNSSHSFLEDLTGLTLLHQETQAAEIWDMSDEETV | binds | – | binds
clathrin light chain (protein, UniProt O08585 1-235) MAELDPFGAPAGAPGGPALGNGVAGAGEEDPAAAFLAQQESEIAGIENDEAFAILDGGAPGRATRRAAGGPDAVDGVMNGEYYQESNGPTDSYAAISEVDRLQSEPESIRKWREEQTERLEALDANSRKQEAEWKEKAIKELEEWYARQDEQLQKTKANNRVADEAFYKQPFADLIGYVAAEEAFVNDIDESSPGTEWERVARLCDFNPKSSKQAKDVSRMRSVLISLKQAPLVH | binds | no binding | binds
cyclin G-associated kinase (protein, UniProt Q99KY4 1-1305) MSLLQSALDFLAGPGSLGGAAGRDQSDFVGQTVELGELRLRVRRVLAEGGFAFVYEAQDLGSGREYALKRLLSNEEEKNRAIIQEVCFLKKLSGHPNIVQFCSAASIGKEESDTGQAEFLLLTELCKGQLVEFLKRVECKGPLSCDSILKIFYQTCRAVQHMHRQKPPIIHRDLKVENLLLSNQGTIKLCDFGSATTISHYPDYSWSAQKRAMVEEEITRNTTPMYRTPEIVDLYSNFPIGEKQDIWALGCILYLLCFRQHPFEDGAKLRIVNGKYSIPVNDTRYTVFHDLIRAMLKVNPVERLSIAEVVRQLQEIAAARNVNPKAPITELLEQNGGYGNSGPSRAQPPCGGTVNSSGVLALAEYDQPYGGFLDILRGGTERLFTNLKDTSSKVIQSVANYAKGDLDISYITSRIAVMSFPAEGVESAIKNNIEDVRMFLDAKHPGHYAVYNLSPRIYRASKFHNRVTECGWAVRRAPHLHSLYTLCRSMHAWLREDHRNVCVVHCMDGRAASAVAVCAFLCFCRLFSTAEAAVYMFSMKRCPPGIWPSHKRYIEYVCDMVAEEPITPHSKPMLVKSVVMTPVPLFSKQRNGCRPFCEVYVGEERVTTTSQEYDRMKEFKIEDGKAVIPLGVTVQGDVLIIIYHARATLGGRLQAKMASMKMFQIQFHTGFVPRNATTVKFAKYDLDACDIQEKYPDLFQVNLEVEVEPRDRPSREAPPWENTSLRGLNPKILFSNREEQQDILSKFGKPELPRQPGSTAQYDAEAGSPEAEITESDSPQSSSTDTNHFLHTLDWQEEKEPETGLDNTSPKESQSVLIADGDGSEVSDEEEASFPSEERKPGAGEDTPRLAAGTKQQDLIFDVGMLAAPQEPVQPEEGVDLLGLHSEGDLRPAAPLQACGVPSSNTDLLSCLLEPSDAAQVGPPGDLLGGEAPLLLASPVSPLGLQNNLQGKVPDTVDPFDQFLLSSNSDTQPCSKPDLFGEFLNSDSVASSTAFPSTHSAPPPSCSTAFLHLGDLPAEPSKVIASSSHPDLLGGWDTWADTATPGPASIPVPEGTLFSSAGHPAPPGPNPSQTKSQNLDPFADLSDLSSSLQGLPAGLPAGGFVGAPAPTQKSNSPWQANRPTAPGTSWTPQAKPAPRASEQLRSHFSVIGAREERGVRVPSFAQKPKVSENDFEDLLPNQGFSKSDKKGPKTMAEMRKQELARDTDPLKLKLLDWIEGKERNIRALLSTLHTVLWDGESRWTPVSMADLVTPEQVKKQYRRAVLVVHPDKATGQPYEQYAKMIFMELNDAWSEFENQGSRPLF | – | no binding | binds
ATG16L2 (protein, UniProt Q6KAU8 1-623) MAGPGAPCDPCAPAAVWKRHIVRQLRHRDRTQKALFLELVPAYNHLLEKAELLAKFSEKLKSEPKDAISTRHEDWREEVSGTGPDQVSSPASLRVKWQQEKKGLQLVCGEMAYQVVKKSAALDTLQSQLEERQDRLEALQACVVQLQEARAQQSRQLEERQAENAAQREAYETLLQQAVHQEAALRRLQEEARDLLEQLVQRKARAAAERNLRNERRERANQALVSQELKKAAKRTVSISEIPNTLEDGTKEETVALAPAALPEFSESETCEKWKRPFRSASATSLTLSRCVDVVKGLLDFKKRRGHSVGGAPEQRYQSIPVCVSAQIPSQAQDVLDAHLSEVNAVCFGPNSSLLATGGADRLIHLWNVVGGRLEANQTLEGAGGSITSVDFDPSGSQVLAATYNQAAQLWKVGETQSKETLSGHKDKVTAAKFKLTRHQAVTGSRDRTVKEWDLGRAYCSRTINVLSYCNDVVCGDHIIISGHNDQKIRFWDSRGPHCIQVIPVQGRVTSLHLSYDQLHLLSCSRDNTLKVIDLRISNIRQVFRADGFKCSSDWTKAVFSPDRSYALAGSSNGDLYIWDVNTGKLETSLQGPHCTAVNAVAWCFSGNHVVSVDQGRKVVLWH | binds | binds | –

Like-named read-outs stand apart in the source and are kept apart here. No constants are given. Whether binding was seen depends on the method and setting. Binding seen in cells or lysates may run through a third protein. Here binding means that the protein was enriched with, or labelled near, the bait; the list need not be complete. For some of these results: A no says only that the protein was not detected with the bait. For some of these results: Tags and fused reporters may be left off the sequences shown.
